# Values from PubChem BioAssay AID1224830 (NIAID, 2016)
# Aim: 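Host factors that control LPS-induced TNF expression in human macrophages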 (primary screen)
# System: human THP-1 monocytic leukaemia cells, TNF dual-luciferase reporter clone, PMA-differentiated to macrophage-like cells
# Reagent: siRNA pool against human genes, 50 nM
# Duration: LPS for 4 h, given about 3 days after siRNA transfection
# Conditions: bacterial LPS (TLR4 ligand), 10 ng/ml
# Read-out: 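TNF firefly reporter luminescence divided by renilla, normalised to the plate median, then turned into a robust z-score for each replicate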
# Direction: TNF reporter robust z-score: higher = stronger TNF reporter response to LPS
# Rule for the call: 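a well is active when its z-score exceeds 2.8 or falls below -1.5; control wells carry no call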
# This is an unselected part of about 18,000 deposited reagents. About 2,900 of them (16%) count as active. 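Calls are made per well; low scores hint the gene aids the LPS response, high scores that it dampens it.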 Repeated entries: four replicate wells of each siRNA pool.
gene,TNF reporter robust z-score,outcome
TDRD1 (tudor domain containing 1),-1.32,inactive
TDRD1 (tudor domain containing 1),-1.2,inactive
TDRD1 (tudor domain containing 1),-0.72,inactive
TDRD1 (tudor domain containing 1),-0.7,inactive
SLC25A36,-0.7,inactive
SLC25A36,0.96,inactive
SLC25A36,-0.45,inactive
SLC25A36,-0.21,inactive
NCOA2 (nuclear receptor coactivator 2),0,inactive
NCOA2 (nuclear receptor coactivator 2),0.43,inactive
NCOA2 (nuclear receptor coactivator 2),-0.32,inactive
NCOA2 (nuclear receptor coactivator 2),-0.04,inactive
HPS3 (HPS3 biogenesis of lysosomal organelles complex 2 subunit 1),1.15,inactive
HPS3 (HPS3 biogenesis of lysosomal organelles complex 2 subunit 1),0.55,inactive
HPS3 (HPS3 biogenesis of lysosomal organelles complex 2 subunit 1),-0.52,inactive
HPS3 (HPS3 biogenesis of lysosomal organelles complex 2 subunit 1),0.83,inactive
FILIP1 (filamin A interacting protein 1),-0.55,inactive
FILIP1 (filamin A interacting protein 1),0.56,inactive
FILIP1 (filamin A interacting protein 1),1.41,inactive
FILIP1 (filamin A interacting protein 1),0.51,inactive
HDGFL2 (HDGF like 2),-0.01,inactive
HDGFL2 (HDGF like 2),-0.7,inactive
HDGFL2 (HDGF like 2),-1.41,inactive
HDGFL2 (HDGF like 2),-0.48,inactive
TPD52L1 (TPD52 like 1),-0.2,inactive
TPD52L1 (TPD52 like 1),-0.34,inactive
TPD52L1 (TPD52 like 1),0.47,inactive
TPD52L1 (TPD52 like 1),0.67,inactive
MTOR (mechanistic target of rapamycin kinase),-0.85,inactive
MTOR (mechanistic target of rapamycin kinase),0.13,inactive
MTOR (mechanistic target of rapamycin kinase),1.05,inactive
MTOR (mechanistic target of rapamycin kinase),0.88,inactive
CCDC198 (coiled-coil domain containing 198),0.3,inactive
CCDC198 (coiled-coil domain containing 198),-0.94,inactive
CCDC198 (coiled-coil domain containing 198),-0.11,inactive
CCDC198 (coiled-coil domain containing 198),-1.59,active
BOD1 (biorientation of chromosomes in cell division 1),0.02,inactive
BOD1 (biorientation of chromosomes in cell division 1),0.97,inactive
BOD1 (biorientation of chromosomes in cell division 1),0.33,inactive
BOD1 (biorientation of chromosomes in cell division 1),-0.07,inactive
GNAT1 (G protein subunit alpha transducin 1),-0.07,inactive
GNAT1 (G protein subunit alpha transducin 1),0.11,inactive
GNAT1 (G protein subunit alpha transducin 1),-0.25,inactive
GNAT1 (G protein subunit alpha transducin 1),0.78,inactive
ANO10 (anoctamin 10),-0.52,inactive
ANO10 (anoctamin 10),0.52,inactive
ANO10 (anoctamin 10),-0.63,inactive
ANO10 (anoctamin 10),1.04,inactive
NAGK (N-acetylglucosamine kinase),0.99,inactive
NAGK (N-acetylglucosamine kinase),1.1,inactive
NAGK (N-acetylglucosamine kinase),1.64,inactive
NAGK (N-acetylglucosamine kinase),2.26,inactive
ZFYVE28 (zinc finger FYVE-type containing 28),-0.88,inactive
ZFYVE28 (zinc finger FYVE-type containing 28),-0.99,inactive
ZFYVE28 (zinc finger FYVE-type containing 28),-1.17,inactive
ZFYVE28 (zinc finger FYVE-type containing 28),-0.93,inactive
PKD1L1-AS1 (PKD1L1 antisense RNA 1),-1.41,inactive
PKD1L1-AS1 (PKD1L1 antisense RNA 1),-1.22,inactive
PKD1L1-AS1 (PKD1L1 antisense RNA 1),-1.52,active
PKD1L1-AS1 (PKD1L1 antisense RNA 1),-1.3,inactive
PUS1 (pseudouridine synthase 1),1.71,inactive
PUS1 (pseudouridine synthase 1),1.12,inactive
PUS1 (pseudouridine synthase 1),2.53,inactive
PUS1 (pseudouridine synthase 1),0.76,inactive
ADAMTS3 (ADAM metallopeptidase with thrombospondin type 1 motif 3),-1.15,inactive
ADAMTS3 (ADAM metallopeptidase with thrombospondin type 1 motif 3),0.33,inactive
ADAMTS3 (ADAM metallopeptidase with thrombospondin type 1 motif 3),-0.45,inactive
ADAMTS3 (ADAM metallopeptidase with thrombospondin type 1 motif 3),-1.04,inactive
PAPOLB (poly(A) polymerase beta),0.2,inactive
PAPOLB (poly(A) polymerase beta),1.41,inactive
PAPOLB (poly(A) polymerase beta),0.79,inactive
PAPOLB (poly(A) polymerase beta),-0.72,inactive
KCTD6 (potassium channel tetramerization domain containing 6),-0.12,inactive
KCTD6 (potassium channel tetramerization domain containing 6),-0.07,inactive
KCTD6 (potassium channel tetramerization domain containing 6),0.19,inactive
KCTD6 (potassium channel tetramerization domain containing 6),1.36,inactive

Reprinted from the listing for reference:
gene,TNF reporter robust z-score,outcome
HPS3 (HPS3 biogenesis of lysosomal organelles complex 2 subunit 1),-0.52,inactive
HPS3 (HPS3 biogenesis of lysosomal organelles complex 2 subunit 1),0.83,inactive
FILIP1 (filamin A interacting protein 1),-0.55,inactive
FILIP1 (filamin A interacting protein 1),0.56,inactive
FILIP1 (filamin A interacting protein 1),1.41,inactive
